Source: paper doi:10.1101/681411
Results are given in words; binding and its absence hold for the method and conditions named. Some entries that bind do so weakly or less than the wild type. Where a sequence is shown, tags or fusion partners need not be part of it.

Protein sequences, listed by entry. Tags and fused reporters are not part of them.
UniProt P00550, whole entry: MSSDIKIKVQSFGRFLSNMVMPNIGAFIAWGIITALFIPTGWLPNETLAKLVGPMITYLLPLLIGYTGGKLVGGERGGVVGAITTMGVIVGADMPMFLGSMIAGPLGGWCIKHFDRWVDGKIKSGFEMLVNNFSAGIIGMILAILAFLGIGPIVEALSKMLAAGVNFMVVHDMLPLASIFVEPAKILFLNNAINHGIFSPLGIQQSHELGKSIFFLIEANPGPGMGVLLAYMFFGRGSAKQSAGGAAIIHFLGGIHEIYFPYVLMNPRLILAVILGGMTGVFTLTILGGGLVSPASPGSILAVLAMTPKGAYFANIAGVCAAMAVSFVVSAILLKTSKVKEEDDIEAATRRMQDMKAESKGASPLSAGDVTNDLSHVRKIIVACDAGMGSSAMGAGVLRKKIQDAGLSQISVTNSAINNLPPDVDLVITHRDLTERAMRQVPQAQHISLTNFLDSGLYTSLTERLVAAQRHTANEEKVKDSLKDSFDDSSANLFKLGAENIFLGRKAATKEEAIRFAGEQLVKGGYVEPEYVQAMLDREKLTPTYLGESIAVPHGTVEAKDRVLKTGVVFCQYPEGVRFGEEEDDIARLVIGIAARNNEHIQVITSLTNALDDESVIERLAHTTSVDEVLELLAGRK

Columns and labels:
[1] = biological target: T1, FruA (fructose-specific Enzyme IICBB' of the PTS) (E. coli K-12 BW25113) (UniProt P20966); experiment: two-hybrid
T1 sequence: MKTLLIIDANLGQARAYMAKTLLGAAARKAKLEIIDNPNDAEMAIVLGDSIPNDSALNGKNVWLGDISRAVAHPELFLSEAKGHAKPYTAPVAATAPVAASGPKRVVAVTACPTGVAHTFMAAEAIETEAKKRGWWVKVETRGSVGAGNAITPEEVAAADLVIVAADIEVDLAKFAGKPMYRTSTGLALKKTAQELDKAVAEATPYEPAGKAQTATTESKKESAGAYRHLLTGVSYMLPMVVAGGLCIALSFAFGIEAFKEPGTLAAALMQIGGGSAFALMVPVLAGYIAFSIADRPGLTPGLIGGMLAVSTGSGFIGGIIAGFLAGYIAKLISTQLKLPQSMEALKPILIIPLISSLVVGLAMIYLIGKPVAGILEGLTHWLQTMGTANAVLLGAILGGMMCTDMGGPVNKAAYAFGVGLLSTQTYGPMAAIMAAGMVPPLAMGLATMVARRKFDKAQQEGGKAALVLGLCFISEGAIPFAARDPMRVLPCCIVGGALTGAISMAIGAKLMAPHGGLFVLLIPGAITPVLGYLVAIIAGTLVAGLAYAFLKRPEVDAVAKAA

[2] = biological target: T2, FruB (fructose-specific enzyme IIA-FPr protein) (E. coli K-12 BW25113) (UniProt P69811); experiment: two-hybrid
T2 sequence: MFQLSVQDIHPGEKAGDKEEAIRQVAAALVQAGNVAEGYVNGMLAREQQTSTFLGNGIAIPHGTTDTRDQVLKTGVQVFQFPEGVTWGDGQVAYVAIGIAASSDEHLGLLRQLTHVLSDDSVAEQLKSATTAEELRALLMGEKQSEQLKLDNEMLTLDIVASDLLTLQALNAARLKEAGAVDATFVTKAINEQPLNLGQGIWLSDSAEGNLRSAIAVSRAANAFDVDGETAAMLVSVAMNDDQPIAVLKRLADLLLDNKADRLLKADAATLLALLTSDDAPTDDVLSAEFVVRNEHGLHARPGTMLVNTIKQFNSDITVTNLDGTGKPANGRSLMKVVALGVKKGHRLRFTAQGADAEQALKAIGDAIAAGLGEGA

## MtlA (mannitol-specific Enzyme IICBA) (from UniProt P00550 1-637)
[1]
  binding: binds
[2]
  binding: binds

B1: GatC (galactitol Enzyme IIC) (protein, UniProt P69831 1-451)
chain: MFSEVMRYILDLGPTVMLPIVIIIFSKILGMKAGDCFKAGLHIGIGFVGIGLVIGLMLDSIGPAAKAMAENFDLNLHVVDVGWPGSSPMTWASQIALVAIPIAILVNVAMLLTRMTRVVNVDIWNIWHMTFTGALLHLATGSWMIGMAGVVIHAAFVYKLGDWFARDTRNFFELEGIAIPHGTSAYMGPIAVLVDAIIEKIPGVNRIKFSADDIQRKFGPFGEPVTVGFVMGLIIGILAGYDVKGVLQLAVKTAAVMLLMPRVIKPIMDGLTPIAKQARSRLQAKFGGQEFLIGLDPALLLGHTAVVSASLIFIPLTILIAVCVPGNQVLPFGDLATIGFFVAMAVAVHRGNLFRTLISGVIIMSITLWIATQTIGLHTQLAANAGALKAGGMVASMDQGGSPITWLLIQVFSPQNIPGFIIIGAIYLTGIFMTWRRARGFIKQEKVVLAE
[1]
  binding: binds

B2: NagE (N-acetylglucosamine Enzyme IICBA) (protein, UniProt P09323 1-648)
chain: MNILGFFQRLGRALQLPIAVLPVAALLLRFGQPDLLNVAFIAQAGGAIFDNLALIFAIGVASSWSKDSAGAAALAGAVGYFVLTKAMVTINPEINMGVLAGIITGLVGGAAYNRWSDIKLPDFLSFFGGKRFVPIATGFFCLVLAAIFGYVWPPVQHAIHAGGEWIVSAGALGSGIFGFINRLLIPTGLHQVLNTIAWFQIGEFTNAAGTVFHGDINRFYAGDGTAGMFMSGFFPIMMFGLPGAALAMYFAAPKERRPMVGGMLLSVAVTAFLTGVTEPLEFLFMFLAPLLYLLHALLTGISLFVATLLGIHAGFSFSAGAIDYALMYNLPAASQNVWMLLVMGVIFFAIYFVVFSLVIRMFNLKTPGREDKEDEIVTEEANSNTEEGLTQLATNYIAAVGGTDNLKAIDACITRLRLTVADSARVNDTMCKRLGASGVVKLNKQTIQVIVGAKAESIGDAMKKVVARGPVAAASAEATPATAAPVAKPQAVPNAVSIAELVSPITGDVVALDQVPDEAFASKAVGDGVAVKPTDKIVVSPAAGTIVKIFNTNHAFCLETEKGAEIVVHMGIDTVALEGKGFKRLVEEGAQVSAGQPILEMDLDYLNANARSMISPVVCSNIDDFSGLIIKAQGHIVAGQTPLYEIKK
[1]
  binding: binds
[2]
  binding: binds

B3: TreB (trehalose Enzyme IIBC) (protein, UniProt P36672 1-473)
chain: MMSKINQTDIDRLIELVGGRGNIATVSHCITRLRFVLNQPANARPKEIEQLPMVKGCFTNAGQFQVVIGTNVGDYYQALIASTGQAQVDKEQVKKAARHNMKWHEQLISHFAVIFFPLLPALISGGLILGFRNVIGDLPMSNGQTLAQMYPSLQTIYDFLWLIGEAIFFYLPVGICWSAVKKMGGTPILGIVLGVTLVSPQLMNAYLLGQQLPEVWDFGMFSIAKVGYQAQVIPALLAGLALGVIETRLKRIVPDYLYLVVVPVCSLILAVFLAHALIGPFGRMIGDGVAFAVRHLMTGSFAPIGAALFGFLYAPLVITGVHQTTLAIDLQMIQSMGGTPVWPLIALSNIAQGSAVIGIIISSRKHNEREISVPAAISAWLGVTEPAMYGINLKYRFPMLCAMIGSGLAGLLCGLNGVMANGIGVGGLPGILSIQPSYWQVFALAMAIAIIIPIVLTSFIYQRKYRLGTLDIV
[1]
  binding: binds

B4: FruB (fructose-specific enzyme IIA-FPr protein) (protein, UniProt P69811 1-376)
chain: MFQLSVQDIHPGEKAGDKEEAIRQVAAALVQAGNVAEGYVNGMLAREQQTSTFLGNGIAIPHGTTDTRDQVLKTGVQVFQFPEGVTWGDGQVAYVAIGIAASSDEHLGLLRQLTHVLSDDSVAEQLKSATTAEELRALLMGEKQSEQLKLDNEMLTLDIVASDLLTLQALNAARLKEAGAVDATFVTKAINEQPLNLGQGIWLSDSAEGNLRSAIAVSRAANAFDVDGETAAMLVSVAMNDDQPIAVLKRLADLLLDNKADRLLKADAATLLALLTSDDAPTDDVLSAEFVVRNEHGLHARPGTMLVNTIKQFNSDITVTNLDGTGKPANGRSLMKVVALGVKKGHRLRFTAQGADAEQALKAIGDAIAAGLGEGA
[1]
  binding: binds
